# PubChem BioAssay AID540275 (National Center for Advancing Translational Sciences (NCATS), 2011)
# Amino acid sequences for entries named in this document (tags omitted).
# UniProt Q8NER1, whole entry, looked up: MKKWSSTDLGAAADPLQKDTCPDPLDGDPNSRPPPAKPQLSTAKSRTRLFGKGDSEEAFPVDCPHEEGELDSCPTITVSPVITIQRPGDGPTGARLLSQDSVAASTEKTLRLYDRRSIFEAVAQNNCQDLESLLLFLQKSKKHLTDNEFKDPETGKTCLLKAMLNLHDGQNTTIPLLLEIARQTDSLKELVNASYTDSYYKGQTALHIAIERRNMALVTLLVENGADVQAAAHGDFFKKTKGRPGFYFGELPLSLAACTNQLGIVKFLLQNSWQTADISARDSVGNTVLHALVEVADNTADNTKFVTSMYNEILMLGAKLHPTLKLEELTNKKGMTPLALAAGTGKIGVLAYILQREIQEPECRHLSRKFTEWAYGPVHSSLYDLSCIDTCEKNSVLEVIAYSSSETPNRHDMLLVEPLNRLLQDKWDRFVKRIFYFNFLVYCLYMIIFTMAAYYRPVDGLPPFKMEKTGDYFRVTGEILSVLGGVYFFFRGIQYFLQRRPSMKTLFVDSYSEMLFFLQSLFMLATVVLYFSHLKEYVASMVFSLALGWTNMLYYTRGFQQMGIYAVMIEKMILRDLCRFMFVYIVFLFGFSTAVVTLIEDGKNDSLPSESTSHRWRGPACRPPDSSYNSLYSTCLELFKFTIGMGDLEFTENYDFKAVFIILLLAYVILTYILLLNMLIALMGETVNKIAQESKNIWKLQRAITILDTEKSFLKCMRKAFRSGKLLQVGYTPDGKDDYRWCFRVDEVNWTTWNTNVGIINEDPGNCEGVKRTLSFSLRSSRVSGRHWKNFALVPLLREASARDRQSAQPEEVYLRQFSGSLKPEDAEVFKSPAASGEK
# Hit rate of the full screen: of about 320,000 compounds, about 620 (0.19%) were called active. Inconclusive means that the source gave no clear call. Such entries were picked first, then a sample of the others. Cut-off read from the data, not from the text of the source: active = activation above about 80%; inconclusive = between about 30% and that limit; inactive = weaker than that.
# Biological target: Transient receptor potential cation channel subfamily V member 1 (Homo sapiens) (UniProt Q8NER1)
# Assay: HTS Assay for Compounds that Act as Agonists of the Vanilloid Receptor 1; note: 0% is about no effect
# Settings: TRPV1-expressing cells, Fluo-8 calcium influx, agonist mode; at 8.33 µM, active compounds read high
# In short: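 Fluo-8 calcium influx in TRPV1-expressing cells, kinetic read (ex 480/em 520 nm). Compound added and read 3 min for agonist activity, followed by capsaicin at EC20 final and 2 min further read for enhancement.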
row,SMILES,activation
1,O=C(COc1ccc2c3c(c(=O)oc2c1)CCCC3)NCc1ccncc1,inconclusive: 61.3%
2,O=C(c1cccc(NS(=O)(=O)c2ccccc2)c1)N1CCCC1,inactive: -5.5%
3,CC1CCN(c2nc3ccccc3n2CC(=O)c2ccccc2)CC1,inconclusive: 30.5%
4,O=C(CCl)Nc1cccc(S(=O)(=O)N2CCCCCC2)c1,inactive: 1.71%
5,O=C(Nc1ccc(Br)cc1)c1ccc(F)c(S(=O)(=O)NCc2cccs2)c1,inactive: 4.21%
6,S=C(Nc1ccc(Cl)c(Cl)c1)N1CCCC1,inconclusive: 34.8%
7,O=C(Nc1nc(-c2cc(F)ccc2F)cs1)c1cccc(N2C(=O)CCC2=O)c1,inactive: -1.19%
8,Cc1cc(NC(=O)Nc2ccccc2F)ccc1Br,inconclusive: 38.5%
9,COc1ccc(-c2nc3cc(C)ccn3c2NCc2ccc3c(c2)OCO3)cc1,inconclusive: 70.5%
10,Nc1nc(N)nc(-c2cc(O)ccc2O)n1,inactive: 4.24%
11,C=CCN(c1cccc(C(F)(F)F)c1)S(=O)(=O)c1cccc(C(=O)OCC(=O)NC)c1,inconclusive: 41.9%
12,COc1ccccc1N1CCN(C(=O)c2ccc3[nH]c4c(c3c2)CCCC4)CC1,inconclusive: 36.3%
13,O=C(NCc1cccc(C(F)(F)F)c1)c1ccc2c(c1)OCO2,inconclusive: 73.2%
14,Cc1cc(C)cc(C(=O)N2CCN=C2c2ccccc2)c1,inconclusive: 36.5%
15,CC1(C)Cc2c(sc3nnn(Cc4ccccc4)c(=O)c23)CO1,inconclusive: 52.3%
16,CN(CC(=O)Nc1ccc(Br)cc1)Cc1ccccc1,inconclusive: 43.8%
17,COc1ccc(CN(C(=O)c2snc(C(N)=O)c2N)C(C(=O)NC2CCCC2)c2cc(OC)ccc2OC)cc1 (centres undefined),inactive: 3.37%
18,O=C(c1cc2c(ccc3ccccc32)o1)N1CCCCC1,inconclusive: 49%
19,Cc1ccc2[nH]c3c(=O)n(N)c(C)nc3c2c1,inactive: -1.15%
20,O=C(/C=C/c1ccccc1)N1CCC(c2ccccc2)C1 (centres undefined),inconclusive: 34.1%

# A portion from further up:
row,SMILES,activation
3,CC1CCN(c2nc3ccccc3n2CC(=O)c2ccccc2)CC1,inconclusive: 30.5%
4,O=C(CCl)Nc1cccc(S(=O)(=O)N2CCCCCC2)c1,inactive: 1.71%
5,O=C(Nc1ccc(Br)cc1)c1ccc(F)c(S(=O)(=O)NCc2cccs2)c1,inactive: 4.21%
6,S=C(Nc1ccc(Cl)c(Cl)c1)N1CCCC1,inconclusive: 34.8%
7,O=C(Nc1nc(-c2cc(F)ccc2F)cs1)c1cccc(N2C(=O)CCC2=O)c1,inactive: -1.19%

# Later entries.

row,SMILES,activation
1,O=C(Nc1ccc(C(F)(F)F)cc1)c1ccccc1,active: 81.7%
2,COc1ccc(N(C)S(=O)(=O)c2cccc(C(=O)Nc3nc(C)c(C(C)=O)s3)c2)cc1,inconclusive: 36.7%
3,CN(C)C(=O)c1ccc(-n2nc(C(F)(F)F)c3c2CCCC3)cc1,inconclusive: 34.7%
4,Cc1cccc(NC(=S)NC(C)(C)CC(C)(C)C)c1,inconclusive: 36.4%
5,COc1ccccc1C/C(N)=N/OC(=O)c1cccc([N+](=O)[O-])c1,inactive: -2.51%
6,Cc1ccc(CNC(=O)CC2(CC3=NS(=O)(=O)c4ccccc4N3)CCCC2)cc1,inconclusive: 43%
7,O=C(CSCc1ccc(Br)cc1)Nc1ccc(S(=O)(=O)N2CCOCC2)cc1,inconclusive: 38.5%
8,Cc1cccc(NC(=S)NC(=O)CC2CC(C)(C)OC2=O)c1 (centres undefined),inactive: 1.16%
9,S=C(NCc1ccncc1)NC1CCCCC1,inconclusive: 46.7%
10,CCc1ccc(C(=O)N/N=C/c2ccc(Cl)cc2Cl)nc1,inconclusive: 47.6%
11,CCc1nnc(NC(=O)c2nc(S(=O)(=O)Cc3ccc(C)cc3)ncc2Cl)s1,inactive: -0.225%
12,Nc1ccccc1SSc1ccccc1N,inactive: 2.37%
13,O=C(NCc1ccccc1)c1ccc(-c2ccc(F)cc2)o1,inconclusive: 70.5%
14,Cc1ccc(SCc2c(C(=O)N/N=C/c3ccccc3)nnn2-c2nonc2N)cc1,inconclusive: 54.3%
15,O=C(Nc1ccc(Cl)cc1)c1ccncc1,inconclusive: 35.9%
16,N#Cc1c(F)cccc1NCc1cccs1,inconclusive: 32.8%
17,COc1ccc(CNC(=O)CNC(=O)c2ccc(C(C)(C)C)cc2)cc1OC,inconclusive: 42.8%
18,Cc1occc1-c1nnc(SCC(=O)Nc2ccccc2)n1CCc1ccccc1,inconclusive: 52.5%
19,FC(F)(F)c1ccc(NC(=S)NC2CCCCC2)cc1,inconclusive: 52.8%
20,CCOc1ccc2cc(C#N)c(SCC(=O)N3CCOCC3)nc2c1,inactive: -3.53%

row,SMILES,activation
1,CCC1CCc2sc(C(=O)NCC3CCCO3)cc2C1 (centres undefined),inconclusive: 66.9%
2,CC1(C)NC(=O)N(CCOCCOc2ccccc2-c2ccccc2)C1=O,inconclusive: 33.6%
3,COc1ccc(CCNC(=O)CCCOc2ccc(Cl)cc2)cc1OC,inconclusive: 36.4%
4,CN(c1ccccc1)S(=O)(=O)c1ccc(NC(=O)c2cccs2)cc1,inconclusive: 43.6%
5,Cc1ccc(OCc2cc(C(=O)NCc3ccc(OC(F)(F)F)cc3)no2)cn1,inconclusive: 41.8%
6,O=C(NCCOc1ccc(Cl)cc1)c1ccco1,inconclusive: 30.9%
7,COc1cccc(CN2CCN(C3CCN(c4ccccc4C)CC3)CC2CCO)c1 (centres undefined),inactive: -2.16%
8,Cc1ccc(C)c(Cn2nnc3c(=O)[nH]c(C4CCCN(C(=O)c5ccco5)C4)nc32)c1 (centres undefined),inactive: -0.932%
9,COc1ccc(-n2cc(CNCc3cnc4ccccn34)c(-c3cccc(F)c3)n2)cc1,inconclusive: 55.9%
10,S=C(Nc1cccc2ccccc12)NC1CCCCC1,inconclusive: 30.4%
11,Cc1cccc(NC(=O)C2C3CCC4C(CCC32)C4(Cl)Cl)c1 (centres undefined),inconclusive: 34.5%
12,N#Cc1ccc(-c2cccnc2)nc1SCc1ccc(Cl)cc1Cl,inconclusive: 38.5%
13,O=C(Cn1cncn1)NCCC(c1ccccc1)c1ccccc1,inconclusive: 40.3%
14,CCN1C(=O)/C(=C\c2ccc(F)cc2)N=C1SCC(=O)NCc1ccco1,inconclusive: 49.5%
15,COc1cccc(NC(=O)COC(=O)CCn2c(C)csc2=O)c1,inactive: 1.73%
16,N#Cc1nc(-c2cccs2)oc1NCCc1ccccc1,inconclusive: 59.2%
17,CCN(CC(=O)Nc1cc(Cl)ccc1-n1cncn1)Cc1nc2ccccc2c(=O)[nH]1,inactive: -5.48%
18,O=C(CSc1ccc(C(F)(F)F)cc1[N+](=O)[O-])N1CCOCC1,inconclusive: 48.8%
19,C/C(=N/NC(=O)CNC(=O)c1ccc2c(c1)OCO2)c1ccc2c(c1)CCCC2,inconclusive: 41.6%
